Reference: publication PMC9168726

Chains of the proteins cited; added tags and fusions are not shown. Lines headed by an entry give the natural chain unless they say otherwise; changes in a name come on top.
UniProt P08913: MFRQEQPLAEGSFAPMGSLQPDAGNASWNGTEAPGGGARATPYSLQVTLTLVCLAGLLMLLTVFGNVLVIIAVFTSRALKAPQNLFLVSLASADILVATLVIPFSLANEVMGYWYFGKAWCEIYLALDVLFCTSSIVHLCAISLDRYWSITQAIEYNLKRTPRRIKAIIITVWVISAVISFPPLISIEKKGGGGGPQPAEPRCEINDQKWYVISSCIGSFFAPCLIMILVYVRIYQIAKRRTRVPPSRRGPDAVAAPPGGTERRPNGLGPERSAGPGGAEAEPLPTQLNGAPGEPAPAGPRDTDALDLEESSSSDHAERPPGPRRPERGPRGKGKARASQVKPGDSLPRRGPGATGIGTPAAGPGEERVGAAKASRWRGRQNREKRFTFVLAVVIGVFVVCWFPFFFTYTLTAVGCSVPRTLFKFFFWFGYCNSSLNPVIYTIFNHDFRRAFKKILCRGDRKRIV

What was measured:
[1] = target: α2A-adrenergic receptor tagged with HA at its NT (UniProt P08913); test: co-IP; HEK293 cells co-transfected with HA-α2A-AR and GFP-C1orf27; lysis in 50 mM Tris-HCl pH 7.4, 150 mM NaCl, 1% Nonidet P-40, 0.5% sodium deoxycholate, 0.1% SDS; IP with HA antibodies overnight at 4 °C, protein G dynabeads; immunoblotting
[2] = target: GST fusion protein of the C terminus (CT) of α2A-AR; test: pull-down; purified GST fusion proteins on glutathione beads (MagneGST) incubated with HEK293 cell homogenates expressing GFP-C1orf27; 20 mM Tris-HCl pH 7.4, 140 mM NaCl, 1% Nonidet P-40, 10% glycerol, overnight at 4 °C; blot with GFP antibodies; for S296-L332 and the CT also with increasing concentrations of NaCl (binding inhibited dose-dependently); only the target purified
[3] = target: GST fusion protein of the third intracellular loop (ICL3) of α2A-AR; test: as above

Measured: binding

B1: C1orf27 tagged with GFP at its NT (protein, UniProt Q5SWX8 1-454)
chain: MGRTYIVEETVGQYLSNINLQGKAFVSGLLIGQCSSQKDYVILATRTPPKEEQSENLKHPKAKLDNLDEEWATEHACQVSRMLPGGLLVLGVFIITTLELANDFQNALRRLMFAVEKSINRKRLWNFTEEEVSERVTLHICASTKKIFCRTYDIHDPKSSARPADWKYQSGLSSSWLSLECTVHINIHIPLSATSVSYTLEKNTKNGLTRWAKEIENGVYLINGQVKDEDCDLLEGQKKSSRGNTQATSHSFDVRVLTQLLLNSDHRSTATVQICSGSVNLKGAVKCRAYIHSSKPKVKDAVQAVKRDILNTVADRCEMLFEDLLLNEIPEKKDSEKEFHVLPYRVFVPLPGSTVMLCDYKFDDESAEEIRDHFMEMLDHTIQIEDLEIAEETNTACMSSSMNSQASLDNTDDEQPKQPIKTTMLLKIQQNIGVIAAFTVAVLAAGISFHYFSD
binds: all assays above

Results are given in words; binding and its absence hold for the method and conditions named. In cells and extracts the contact can be indirect. A result given as binding can be weak or reduced; the word gives no strength. Tags and fused reporters may be left off the sequences shown.
